{
  "source": "PubChem BioAssay AID1259415",
  "about": "(National Center for Advancing Translational Sciences (NCATS), 2018)",
  "note": "Out of some 410,000 compounds screened, about 18,000 (4.4%) were called active. This list was built around the results that the source calls inconclusive (neither active nor inactive); the mix of calls is not that of the screen. No stated cut-off is given here; in the data, active means activity change below about -60%; inconclusive means no clear call, values can overlap the other calls; inactive means above about -39%. On the % scale 0 is the no-effect control and ±100 the full control effect.",
  "data": [
    {"assay": "qHTS Assay for inhibitors of the human cytomegalovirus (HCMV)", "conditions": "HFF cells, HCMV-luciferase reporter, 72 h; at 57.5 µM; stronger effect = lower value", "outline": "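Luciferase read-out from HCMV-luciferase-infected HFFs (MOI 1 PFU/cell) 72 h post infection at 37C; compounds added after 16 h cell attachment; activity normalized between buffer-only basal and Salinomycin (10uM) inhibitor controls.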", "values": [
      {"smiles": "CC(C)(C)C1CCc2oc3ccc(NS(=O)(=O)c4cc(Cl)ccc4Cl)cc3c2C1", "note": "(configuration not stated)", "activity change, negative = inhibition": "inconclusive: -50.4%"},
      {"smiles": "Cc1noc(C)c1COC(=O)c1ccc2ccccc2n1", "activity change, negative = inhibition": "inactive: 48.1%"},
      {"smiles": "O=C(c1ccco1)N1CCN(Cc2nc3cc(Cl)ccc3c(=O)[nH]2)CC1", "activity change, negative = inhibition": "inactive: 21.5%"},
      {"smiles": "Cc1ccccc1NC(=O)c1ccc(N/N=C/c2ccccc2O)c([N+](=O)[O-])c1", "activity change, negative = inhibition": "active: -84.5%"},
      {"smiles": "CC(C)N(C(=S)NCc1ccccc1)C(C)C", "activity change, negative = inhibition": "inconclusive: -42.6%"},
      {"smiles": "COc1ccc(C(=O)N/N=C/c2ccc3cccc(O)c3n2)cc1", "activity change, negative = inhibition": "inconclusive: -41.3%"},
      {"smiles": "Oc1ccc(Nc2nc(N3CCCC3)c3ccccc3n2)cc1", "activity change, negative = inhibition": "active: -65.9%"},
      {"smiles": "CCCn1cnc2c(SCc3ccccc3Cl)nc(N)nc21", "activity change, negative = inhibition": "inconclusive: -56.4%"},
      {"smiles": "O=C1c2ccccc2C(c2nnnn2-c2ccc3c(c2)OCCO3)N1CCc1ccc(O)cc1", "note": "(configuration not stated)", "activity change, negative = inhibition": "inconclusive: -43.7%"},
      {"smiles": "CCOC(=O)c1cc2sc(C)cc2n1CC(=O)Nc1ccc2c(c1)OCCO2", "activity change, negative = inhibition": "inconclusive: -49%"},
      {"smiles": "COc1ccc(N(C(=O)c2snc(C(N)=O)c2N)C(C(=O)NC2CCCCC2)c2ccc(F)cc2)c(OC)c1", "note": "(configuration not stated)", "activity change, negative = inhibition": "inconclusive: -44.1%"},
      {"smiles": "C/C(=N/NC(N)=S)c1ccc(Br)s1", "activity change, negative = inhibition": "inconclusive: -59.3%"},
      {"smiles": "O=C(NC1CCN(Cc2ccccc2)CC1)c1ccccc1OCc1ccccc1Cl", "activity change, negative = inhibition": "active: -62.7%"},
      {"smiles": "Cc1cccc(CCNC(=O)C2CCC(=O)N(Cc3ccc(Cl)cc3)C2)n1", "note": "(configuration not stated)", "activity change, negative = inhibition": "inconclusive: -51.7%"},
      {"smiles": "Cc1cc(C(=O)NC2CCCc3c2cnn3-c2cccc(C)c2C)no1", "note": "(configuration not stated)", "activity change, negative = inhibition": "active: -97.3%"},
      {"smiles": "CCn1c(C)c(C)c2cc(C(=O)NCCCN3CCCC3)ccc21", "activity change, negative = inhibition": "inactive: -27.6%"},
      {"smiles": "O=c1c2ccccc2nnn1CSc1nnc(-c2cccs2)n1Cc1ccccc1", "activity change, negative = inhibition": "inconclusive: -52.8%"},
      {"smiles": "CCOc1ccc(-c2c(C(=O)N/N=C(\\C)c3ccco3)nnn2-c2nonc2N)cc1", "activity change, negative = inhibition": "inconclusive: -43%"},
      {"smiles": "CC1CC(C)CN(c2nc(NCc3ccco3)nc(N)c2[N+](=O)[O-])C1", "note": "(configuration not stated)", "activity change, negative = inhibition": "active: -66.7%"},
      {"smiles": "COc1cc(Br)c(C2CC(=O)Nc3cc(OC)c(OC)c(OC)c32)cc1OC", "note": "(configuration not stated)", "activity change, negative = inhibition": "inactive: 16.9%"},
      {"smiles": "COc1ccc(S(=O)(=O)N2CCCC(C(=O)NCc3ccc4c(c3)OCO4)C2)cc1", "note": "(configuration not stated)", "activity change, negative = inhibition": "inconclusive: -52.1%"},
      {"smiles": "CCn1c(=O)n(CC)c2cc(N3CCCC3)c(NC(=O)c3cc(Br)ccc3OC)cc21", "activity change, negative = inhibition": "active: -69.8%"},
      {"smiles": "Cc1csc(NC(=O)CSc2nc3[nH]c(=O)cc(O)c3s2)n1", "activity change, negative = inhibition": "inconclusive: 0%"},
      {"smiles": "Cc1ccc2c(c1)-c1c(ssc1=S)C(C)(C)N2C(=O)CSc1nncn1C", "activity change, negative = inhibition": "inactive: -2.62%"},
      {"smiles": "CN(CCOc1ccccc1)C(=O)c1ccc(OC2CCN(C(=O)C3CC3)CC2)cc1", "activity change, negative = inhibition": "inconclusive: -52.7%"},
      {"smiles": "Cc1cccc(NC(=O)C(C)Sc2nc3nc(C)cc(C)n3n2)c1", "note": "(configuration not stated)", "activity change, negative = inhibition": "inconclusive: -40.9%"},
      {"smiles": "Cc1ccc(NC(=O)c2cc(S(=O)(=O)N3CCCCC3)ccc2N2CCOCC2)cc1S(=O)(=O)N(C)C", "activity change, negative = inhibition": "inconclusive: -58.2%"},
      {"smiles": "Cc1cc(NC(=O)CSc2nnc(Cc3ccccc3)n2C)no1", "activity change, negative = inhibition": "inactive: 14.8%"},
      {"smiles": "Cc1cccc(N2CN(S(=O)(=O)c3cccc([N+](=O)[O-])c3)c3nc4ccccc4nc32)c1", "activity change, negative = inhibition": "inconclusive: -50.7%"},
      {"smiles": "N/C(=N\\OC(=O)N1CCOCC1)c1ccccc1", "activity change, negative = inhibition": "inconclusive: -45%"},
      {"smiles": "NC1=C(Br)C(=O)c2ccccc2C1=O", "activity change, negative = inhibition": "active: -86.1%"},
      {"smiles": "COc1ccc2[nH]c(C)c(CCNC(=S)Nc3cccc(C)c3C)c2c1", "activity change, negative = inhibition": "inconclusive: -49.9%"},
      {"smiles": "CN(C1CCCCC1)S(=O)(=O)c1ccc(C(=O)N2CCN(c3nc4ccccc4s3)CC2)cc1", "activity change, negative = inhibition": "inconclusive: -57%"},
      {"smiles": "O=C(Cc1ccccc1)Nc1nccs1", "activity change, negative = inhibition": "inactive: 0.0747%"},
      {"smiles": "C[C@]12N[C@H](Cc3ccccc31)c1ccccc12", "activity change, negative = inhibition": "inconclusive: -58.9%"},
      {"smiles": "CCN(C(=O)CN1C(=O)/C(=C/c2ccccc2F)SC1=S)C1CCS(=O)(=O)C1", "note": "(configuration not stated)", "activity change, negative = inhibition": "inconclusive: -51.6%"},
      {"smiles": "O=C(NNc1ccccc1)c1ccc(Cl)c(Cl)c1", "activity change, negative = inhibition": "active: -77.4%"},
      {"smiles": "CC1(C)CC(=O)C(N=Nc2ccc(-c3ccccc3)cc2)=C(O)C1", "activity change, negative = inhibition": "inconclusive: -52.7%"},
      {"smiles": "CCOC(=O)C1=C(C)NC(=O)NC1c1ccc(N(CC)CC)cc1", "note": "(configuration not stated)", "activity change, negative = inhibition": "inactive: 5.91%"},
      {"smiles": "COc1ccc(Nc2cc(Sc3ccc(OC)cc3)ncn2)cc1", "activity change, negative = inhibition": "active: -88.8%"},
      {"smiles": "O=C(CCN1C(=O)/C(=C\\c2ccccc2)SC1=S)NCCCN1CCOCC1", "activity change, negative = inhibition": "inconclusive: -41.4%"},
      {"smiles": "Cc1ccc(C)c(NC(=O)c2ccc3nccnc3c2)c1", "activity change, negative = inhibition": "active: -67%"},
      {"smiles": "CCOc1ccc(S(=O)(=O)N2CCCCC2)cc1NC(=O)CN1C(=O)NC(C)(c2ccccc2)C1=O", "note": "(configuration not stated)", "activity change, negative = inhibition": "inconclusive: -42.4%"},
      {"smiles": "COc1ccc(Cl)cc1NC(=O)c1cnc2n(c1=O)CCS2", "activity change, negative = inhibition": "inactive: 6.91%"},
      {"smiles": "O=S1(=O)CCN(Cc2cccc(C(F)(F)F)c2)CC1", "activity change, negative = inhibition": "inconclusive: -48.4%"},
      {"smiles": "Cc1ccc(C)c(CN2C(=O)c3ccccc3S(=O)c3ccc(C(=O)NCc4ccccc4)cc32)c1", "note": "(configuration not stated)", "activity change, negative = inhibition": "inconclusive: -48.8%"},
      {"smiles": "CCCCCC(=O)Nc1cc(S(=O)(=O)N2CCOCC2)ccc1Oc1ccc(OCC)cc1", "activity change, negative = inhibition": "inconclusive: -49.6%"},
      {"smiles": "FC(F)(F)c1cccc(C2NCc3ccccc3-n3cccc32)c1", "note": "(configuration not stated)", "activity change, negative = inhibition": "inconclusive: -44.9%"},
      {"smiles": "COc1ccc(-c2c3c(=O)n(C)c(=O)n(C)c3cn2-c2ccccc2O)cc1", "activity change, negative = inhibition": "inconclusive: -40.8%"},
      {"smiles": "CCCn1c(N)c(C(=O)CSc2nc3ccccc3s2)c(=O)[nH]c1=O", "activity change, negative = inhibition": "active: -66.1%"},
      {"smiles": "O=C(Nc1nc2c(cc3c4c(cccc42)CC3)s1)c1ccccc1Cl", "activity change, negative = inhibition": "inconclusive: -52.6%"},
      {"smiles": "O=C(NCCCCc1ccccc1)c1ccccc1Br", "activity change, negative = inhibition": "inactive: 48.7%"},
      {"smiles": "O=C(NCc1ccco1)c1ccccc1O", "activity change, negative = inhibition": "inactive: 12.2%"},
      {"smiles": "CCN(CC)CCCN(C(=O)c1cccc(C)c1)c1nc(-c2ccc(OC)cc2)cs1", "activity change, negative = inhibition": "active: -94.7%"},
      {"smiles": "Cn1nc([N+](=O)[O-])nc1Oc1ccc(C(C)(C)C)cc1", "activity change, negative = inhibition": "inactive: -36.4%"},
      {"smiles": "O=C(Nc1ccccc1)N1CCN(c2cccc(C(F)(F)F)c2)CC1", "activity change, negative = inhibition": "inconclusive: -49.2%"},
      {"smiles": "CCOC(=O)C1CCCN(CC(=O)Nc2cccc(C(C)=O)c2)C1", "note": "(configuration not stated)", "activity change, negative = inhibition": "inconclusive: -47.1%"}
    ]}
  ]
}
